This test has as its target N-CoR (nuclear receptor corepressor), endogenous protein of the transfected cells (UniProt O75376). Kind of test: anti-Flag column purification from PEAK Rapid cells, Western blotting. (A western blot detects proteins with antibodies after separation by electrophoresis.)

By UniProt entry, the sequences of proteins in these tests, tags left out. Where a name states a change or a piece, a line headed by the entry shows the natural chain unless it says otherwise.
UniProt O75376: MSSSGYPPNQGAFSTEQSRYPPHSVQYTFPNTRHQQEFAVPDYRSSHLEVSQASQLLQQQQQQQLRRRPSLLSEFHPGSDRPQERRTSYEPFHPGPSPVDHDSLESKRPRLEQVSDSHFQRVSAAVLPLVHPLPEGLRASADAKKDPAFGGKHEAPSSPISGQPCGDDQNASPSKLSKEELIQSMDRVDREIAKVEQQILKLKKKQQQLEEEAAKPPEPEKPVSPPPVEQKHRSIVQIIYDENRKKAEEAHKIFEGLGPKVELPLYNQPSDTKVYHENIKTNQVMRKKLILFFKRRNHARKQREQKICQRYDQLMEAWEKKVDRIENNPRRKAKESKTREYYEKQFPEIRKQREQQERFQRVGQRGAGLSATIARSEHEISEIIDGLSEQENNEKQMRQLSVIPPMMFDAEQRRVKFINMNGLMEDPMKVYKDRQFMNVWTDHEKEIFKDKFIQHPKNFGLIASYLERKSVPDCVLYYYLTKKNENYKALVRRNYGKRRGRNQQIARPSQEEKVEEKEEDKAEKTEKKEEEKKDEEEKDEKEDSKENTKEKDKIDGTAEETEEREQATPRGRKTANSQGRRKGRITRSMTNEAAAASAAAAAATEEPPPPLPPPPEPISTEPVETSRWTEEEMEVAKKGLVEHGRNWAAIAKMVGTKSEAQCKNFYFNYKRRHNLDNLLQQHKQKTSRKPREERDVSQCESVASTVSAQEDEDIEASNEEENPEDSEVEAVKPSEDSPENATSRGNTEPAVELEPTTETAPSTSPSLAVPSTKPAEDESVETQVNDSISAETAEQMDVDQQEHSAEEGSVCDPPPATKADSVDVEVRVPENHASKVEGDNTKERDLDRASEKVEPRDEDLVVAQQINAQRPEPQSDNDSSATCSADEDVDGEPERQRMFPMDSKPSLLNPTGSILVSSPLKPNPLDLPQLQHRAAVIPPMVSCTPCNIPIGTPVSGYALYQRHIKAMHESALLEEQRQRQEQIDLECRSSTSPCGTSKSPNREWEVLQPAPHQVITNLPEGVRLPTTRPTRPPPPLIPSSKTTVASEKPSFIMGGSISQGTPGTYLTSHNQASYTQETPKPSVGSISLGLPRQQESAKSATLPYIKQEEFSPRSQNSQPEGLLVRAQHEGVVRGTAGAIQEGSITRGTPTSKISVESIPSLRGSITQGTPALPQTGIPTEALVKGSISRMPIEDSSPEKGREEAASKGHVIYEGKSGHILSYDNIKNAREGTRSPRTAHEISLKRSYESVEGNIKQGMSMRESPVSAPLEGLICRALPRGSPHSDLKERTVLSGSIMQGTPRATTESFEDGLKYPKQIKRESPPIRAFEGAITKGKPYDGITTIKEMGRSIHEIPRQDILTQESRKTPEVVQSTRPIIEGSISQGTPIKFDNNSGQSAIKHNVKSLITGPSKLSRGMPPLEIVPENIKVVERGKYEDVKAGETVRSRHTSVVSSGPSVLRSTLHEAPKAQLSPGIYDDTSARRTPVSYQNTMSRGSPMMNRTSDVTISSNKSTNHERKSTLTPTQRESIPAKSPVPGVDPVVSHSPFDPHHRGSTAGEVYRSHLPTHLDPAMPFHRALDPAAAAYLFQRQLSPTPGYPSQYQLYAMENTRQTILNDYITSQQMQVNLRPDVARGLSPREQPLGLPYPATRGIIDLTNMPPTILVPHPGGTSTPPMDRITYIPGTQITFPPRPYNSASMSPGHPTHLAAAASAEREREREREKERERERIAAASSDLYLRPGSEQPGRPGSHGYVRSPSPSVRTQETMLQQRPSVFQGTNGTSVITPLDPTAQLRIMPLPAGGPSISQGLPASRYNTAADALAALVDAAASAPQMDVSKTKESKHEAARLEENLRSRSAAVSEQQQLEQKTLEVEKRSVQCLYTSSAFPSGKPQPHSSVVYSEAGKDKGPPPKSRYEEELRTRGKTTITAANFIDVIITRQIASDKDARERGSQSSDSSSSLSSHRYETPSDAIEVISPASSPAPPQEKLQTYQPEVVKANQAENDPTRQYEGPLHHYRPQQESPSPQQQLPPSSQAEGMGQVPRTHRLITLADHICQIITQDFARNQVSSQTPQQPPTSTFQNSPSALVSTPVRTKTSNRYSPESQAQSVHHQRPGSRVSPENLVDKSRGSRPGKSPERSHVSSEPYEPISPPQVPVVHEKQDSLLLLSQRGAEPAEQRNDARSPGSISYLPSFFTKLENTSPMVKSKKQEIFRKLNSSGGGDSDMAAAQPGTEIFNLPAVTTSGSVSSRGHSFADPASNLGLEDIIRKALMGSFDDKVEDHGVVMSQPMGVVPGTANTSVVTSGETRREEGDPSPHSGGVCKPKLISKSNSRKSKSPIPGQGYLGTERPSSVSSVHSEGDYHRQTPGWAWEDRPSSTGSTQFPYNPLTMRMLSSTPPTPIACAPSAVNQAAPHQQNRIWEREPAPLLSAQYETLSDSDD
UniProt Q8WUI4: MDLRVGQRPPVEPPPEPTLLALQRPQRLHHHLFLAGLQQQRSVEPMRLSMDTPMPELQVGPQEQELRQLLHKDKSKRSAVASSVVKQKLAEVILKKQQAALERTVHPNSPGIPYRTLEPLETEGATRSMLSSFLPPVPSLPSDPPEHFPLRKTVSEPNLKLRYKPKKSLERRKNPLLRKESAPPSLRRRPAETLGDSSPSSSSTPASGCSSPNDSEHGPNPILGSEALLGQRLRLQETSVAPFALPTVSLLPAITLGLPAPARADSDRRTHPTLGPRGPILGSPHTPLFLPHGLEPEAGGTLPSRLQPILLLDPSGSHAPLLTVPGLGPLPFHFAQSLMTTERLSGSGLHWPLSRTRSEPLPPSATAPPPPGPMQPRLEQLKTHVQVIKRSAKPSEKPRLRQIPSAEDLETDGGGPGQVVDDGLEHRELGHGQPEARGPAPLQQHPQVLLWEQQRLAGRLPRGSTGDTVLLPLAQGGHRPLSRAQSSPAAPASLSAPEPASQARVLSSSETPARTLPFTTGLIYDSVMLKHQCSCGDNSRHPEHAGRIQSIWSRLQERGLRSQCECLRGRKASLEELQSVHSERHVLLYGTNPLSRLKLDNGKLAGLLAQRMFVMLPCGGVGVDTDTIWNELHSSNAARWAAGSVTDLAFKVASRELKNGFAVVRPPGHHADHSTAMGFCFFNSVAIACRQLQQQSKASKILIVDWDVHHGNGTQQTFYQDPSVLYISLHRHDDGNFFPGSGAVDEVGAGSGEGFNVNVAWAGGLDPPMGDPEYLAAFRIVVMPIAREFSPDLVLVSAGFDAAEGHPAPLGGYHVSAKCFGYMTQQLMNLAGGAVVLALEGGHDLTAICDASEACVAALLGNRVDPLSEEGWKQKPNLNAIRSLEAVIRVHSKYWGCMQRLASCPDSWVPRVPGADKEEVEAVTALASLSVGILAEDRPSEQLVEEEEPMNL

No constants are given. Whether binding was seen depends on the method and setting. A result given as binding can be weak or reduced; the word gives no strength.

“HDAC7 with a Flag sequence added to the C-terminal (expressed from pEAK-HDAC7, pMH141) (from UniProt Q8WUI4) (enzyme)”: the binding entry was “binds”.
